The results in this text go back to paper doi:10.1101/2022.03.06.483192.

Amino acid sequences for entries named in this document (tags omitted). A change or cut given only in a name is not applied to a line headed by its entry.
UniProt A1L190: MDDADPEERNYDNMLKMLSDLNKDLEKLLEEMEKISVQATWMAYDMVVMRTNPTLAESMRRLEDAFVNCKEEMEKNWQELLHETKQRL

Read-outs that look alike come from different tables or passages of the source. These are yes or no findings as the source states them, for the method shown. Binding calls can cover weak binding; strength is not graded here. For some of these results: In cells and extracts the contact can be indirect. For some of these results: Where a sequence is shown, tags or fusion partners need not be part of it.

Experiment [1] has as its target T1, MBP-SYCP1αNcore (UniProt Q15431).
T1 sequence: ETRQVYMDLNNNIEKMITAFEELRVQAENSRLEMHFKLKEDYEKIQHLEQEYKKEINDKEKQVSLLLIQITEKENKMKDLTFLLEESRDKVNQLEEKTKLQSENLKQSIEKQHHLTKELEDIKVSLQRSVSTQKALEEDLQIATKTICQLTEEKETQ
The experiment is described as follows: pull-down.

The target in experiment [2] is T1, MBP-SYCP1αNcore. Kind of experiment: pull-down. This is another data set of the same source.
In experiment [3] the target is T2, SYCP1αNcore (UniProt Q15431).
T2 sequence: T1 sequence
The experiment is described as follows: SEC.

Experiment [4] addresses T3, SYCP1αN (UniProt Q15431).
T3 sequence: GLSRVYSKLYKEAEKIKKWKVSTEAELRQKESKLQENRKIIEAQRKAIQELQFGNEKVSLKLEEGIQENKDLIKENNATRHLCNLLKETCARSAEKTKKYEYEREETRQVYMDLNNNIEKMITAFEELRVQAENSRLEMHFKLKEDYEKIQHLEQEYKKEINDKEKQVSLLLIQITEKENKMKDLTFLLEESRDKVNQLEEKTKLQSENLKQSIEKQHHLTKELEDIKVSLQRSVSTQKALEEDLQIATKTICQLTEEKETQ
Kind of experiment: SEC.

Experiment [5] has as its target T2, SYCP1αNcore. The experiment is described as follows: SEC. The source holds these as a separate data set.

Take His-SYCE3 P53Q (from UniProt A1L190): the binding entry in experiment [1] was “binds”. Regarding His-SYCE3 (from UniProt A1L190), the binding result in experiment [1] and in experiment [2] was “binds” in each case. As to “His-SYCE3 W41E Y44E (from UniProt A1L190)”, the binding result in experiment [1] is “binds”. In the case of SYCE3 (from UniProt A1L190), the binding result in experiment [3], in experiment [4] and in experiment [5] was “binds” throughout.
